Laboratory results published in article PMC6530869.
No constants are given. Whether binding was seen depends on the method and setting. A result given as binding can be weak or reduced; the word gives no strength. Tags and fused reporters may be left off the sequences shown. For some assays here: In cells and extracts the contact can be indirect.

Tests used:
[1] = target: SkaH(H285A) (fusion to a split adenylate cyclase fragment) (Caulobacter crescentus); test: two-hybrid; bacterial two-hybrid in E. coli BTH101; kinases fused to the C-terminus of the T25 and T18c fragments of adenylate cyclase; colour of spots on LB agar with X-gal and 0.5 mM IPTG after 36 hours at 30°C
[2] = target: SkaH(D550A) (fusion to a split adenylate cyclase fragment) (Caulobacter crescentus); test: as above
[3] = target: MBP-SkaH (Caulobacter crescentus); test: pull-down; fusions co-expressed in C. crescentus; cleared lysate loaded on amylose resin (MBP held), washed with 30-50 ml of 25 mM Tris pH 7.6, 125 mM NaCl, eluted with 40 mM maltose; co-purifying kinases detected by Western blot against HA or FLAG

| Binder | binding [1] | binding [2] | binding [3] |
| --- | --- | --- | --- |
| LovK(H180A) (fusion to a split adenylate cyclase fragment) (protein, UniProt Q9ABE3 1-368) MEDYSESRRAGERLAAGHGVDDPFAAAISATRMAMIVADATQPDIPIIFANDAFLRLTGYARDEVIGRNCRFLQGPDTDPKAIQAVRDALAAGEDVAVDLLNYRKDGSPFWNALNMSPVRNDAGQLVYFFGSQVDVTDKKVVELRARDHSDGLQQMVEERTRELTEALKQKTALLHEVDARVKNNLQLISSLLLLQNRRVPDPAVKASLRGMLGRVNAIATVHRRLFQSEDVERFDVSAFIRDMVADLMGSAMRDDIRVELDLERVEIPAAKAAPLALVVNELLTNALRHGFPEGRGGRIFVGLSRLNGDFRIEITDDGVGQDRETRASGFGLTIVQLLCQQLKAKWETTDAEPGTRVVVLLPINGTQ | binds | binds | – |
| HA-LovK (protein, UniProt Q9ABE3 1-368) MEDYSESRRAGERLAAGHGVDDPFAAAISATRMAMIVADATQPDIPIIFANDAFLRLTGYARDEVIGRNCRFLQGPDTDPKAIQAVRDALAAGEDVAVDLLNYRKDGSPFWNALNMSPVRNDAGQLVYFFGSQVDVTDKKVVELRARDHSDGLQQMVEERTRELTEALKQKTALLHEVDHRVKNNLQLISSLLLLQNRRVPDPAVKASLRGMLGRVNAIATVHRRLFQSEDVERFDVSAFIRDMVADLMGSAMRDDIRVELDLERVEIPAAKAAPLALVVNELLTNALRHGFPEGRGGRIFVGLSRLNGDFRIEITDDGVGQDRETRASGFGLTIVQLLCQQLKAKWETTDAEPGTRVVVLLPINGTQ | – | – | binds |
| LovK (fusion to the T25 or T18c fragment of adenylate cyclase) (protein, UniProt Q9ABE3 1-368) MEDYSESRRAGERLAAGHGVDDPFAAAISATRMAMIVADATQPDIPIIFANDAFLRLTGYARDEVIGRNCRFLQGPDTDPKAIQAVRDALAAGEDVAVDLLNYRKDGSPFWNALNMSPVRNDAGQLVYFFGSQVDVTDKKVVELRARDHSDGLQQMVEERTRELTEALKQKTALLHEVDHRVKNNLQLISSLLLLQNRRVPDPAVKASLRGMLGRVNAIATVHRRLFQSEDVERFDVSAFIRDMVADLMGSAMRDDIRVELDLERVEIPAAKAAPLALVVNELLTNALRHGFPEGRGGRIFVGLSRLNGDFRIEITDDGVGQDRETRASGFGLTIVQLLCQQLKAKWETTDAEPGTRVVVLLPINGTQ | binds | binds | – |
